The assay deals with T1, heterogeneous nuclear ribonucleoprotein R (hnRNP R) (mouse (endogenous in primary motoneurons)) (UniProt Q8VHM5).
T1 sequence: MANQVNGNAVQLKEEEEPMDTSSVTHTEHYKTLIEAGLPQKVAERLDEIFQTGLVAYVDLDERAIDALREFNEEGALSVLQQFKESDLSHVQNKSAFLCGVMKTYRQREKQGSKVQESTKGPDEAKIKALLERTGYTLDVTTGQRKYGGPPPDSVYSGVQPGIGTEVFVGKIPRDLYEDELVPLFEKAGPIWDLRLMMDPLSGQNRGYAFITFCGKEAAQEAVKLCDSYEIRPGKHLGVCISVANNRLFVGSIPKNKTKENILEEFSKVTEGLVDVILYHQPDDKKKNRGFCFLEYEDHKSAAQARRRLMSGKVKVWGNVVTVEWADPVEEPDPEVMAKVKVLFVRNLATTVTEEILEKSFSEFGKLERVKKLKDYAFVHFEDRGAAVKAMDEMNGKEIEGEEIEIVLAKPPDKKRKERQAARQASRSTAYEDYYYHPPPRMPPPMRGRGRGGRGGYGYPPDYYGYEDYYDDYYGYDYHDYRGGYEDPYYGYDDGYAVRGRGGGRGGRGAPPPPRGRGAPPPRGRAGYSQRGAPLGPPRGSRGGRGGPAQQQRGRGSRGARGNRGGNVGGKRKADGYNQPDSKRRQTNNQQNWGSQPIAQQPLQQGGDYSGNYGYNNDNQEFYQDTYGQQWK
Description: co-IP; anti-hnRNP R antibody on magnetic Dynabeads Protein A or G, whole lysate of primary mouse motoneurons (DIV 7), without or with Benzonase; lysis 10 mM HEPES pH 7.0, 100 mM KCl, 5 mM MgCl2, 0.5% NP-40; overnight at 4 °C; immunoblot.

No constants are given. Whether binding was seen depends on the method and setting. In cells and extracts the contact can be indirect. Binding calls can cover weak binding; strength is not graded here.

As to initiation factor eIF4G, the binding entry is reported as “binds”.

The record behind these values is article PMC11358521.
